Values from PubChem BioAssay AID504774 (Drosophila RNAi Screening Center, 2011)
The screen tested about 23,000 reagents; below is an unselected part of those that have a named target and a result. 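Values are quantile-normalised luminescence on an arbitrary scale; higher means more cells surviving MMS.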 Names joined by + are all predicted targets of the reagent. No sequences are given here.

Aim: 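Fly genes whose loss alters survival after alkylation damage to DNA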 (primary screen)
Cell system: Drosophila Kc167 cells
Reagents: long dsRNA against Drosophila genes, about 0.25 µg dsRNA per well
Time to read-out: about 6 days: 3 days knock-down, then 3 days with or without MMS
Treatment: methyl methanesulphonate 0.004% (w/v) for 3 days after knock-down
Read-out: 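Viability in wells given MMS, read as ATP luminescence, normalised by quantiles plate by plate and averaged across replicates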
Direction: mean viability with MMS and viability with MMS: higher = more surviving cells after MMS

The opening 8 records as a preview:
mean viability with MMS | viability with MMS, replicate 1 | viability with MMS, replicate 2 | Target gene | amplicon
3.58e6 | 4.05e6 | 4.04e6 | CG8028 | DRSC20075
3.44e6 | 3.90e6 | 3.89e6 | CG6739 | DRSC02987
3.57e6 | 3.91e6 | 4.19e6 | Polr2J | DRSC02995
3.61e6 | 4.10e6 | 4.11e6 | CG3788 | DRSC04418
3.80e6 | 4.22e6 | 4.26e6 | S1P | DRSC11810
3.65e6 | 4.08e6 | 4.17e6 | CG30265 | DRSC21592
3.40e6 | 3.89e6 | 3.74e6 | Tnks | DRSC14154
3.40e6 | 3.65e6 | 3.76e6 | CG4612 | DRSC04478

Main list, from the first entry:
mean viability with MMS | viability with MMS, replicate 1 | viability with MMS, replicate 2 | Target gene | amplicon
3.58e6 | 4.05e6 | 4.04e6 | CG8028 | DRSC20075
3.44e6 | 3.90e6 | 3.89e6 | CG6739 | DRSC02987
3.57e6 | 3.91e6 | 4.19e6 | Polr2J | DRSC02995
3.61e6 | 4.10e6 | 4.11e6 | CG3788 | DRSC04418
3.80e6 | 4.22e6 | 4.26e6 | S1P | DRSC11810
3.65e6 | 4.08e6 | 4.17e6 | CG30265 | DRSC21592
3.40e6 | 3.89e6 | 3.74e6 | Tnks | DRSC14154
3.40e6 | 3.65e6 | 3.76e6 | CG4612 | DRSC04478
3.64e6 | 4.12e6 | 4.10e6 | Clc | DRSC11116
3.56e6 | 4.06e6 | 4.02e6 | eEF1beta | DRSC07419
3.67e6 | 4.37e6 | 4.14e6 | ktub | DRSC04551
3.22e6 | 3.76e6 | 3.88e6 | CG12158 | DRSC22933
3.50e6 | 3.98e6 | 3.94e6 | CG10466 | DRSC02060
3.43e6 | 3.96e6 | 3.88e6 | CG31370 | DRSC21453
2.90e6 | 3.48e6 | 3.47e6 | RpL39 | DRSC04651
3.66e6 | 4.02e6 | 4.23e6 | Ts | DRSC00795
3.39e6 | 3.89e6 | 3.89e6 | Ts | DRSC22168
3.49e6 | 3.97e6 | 3.89e6 | colt | DRSC00808
3.55e6 | 4.10e6 | 3.95e6 | CG14625 | DRSC18633
3.51e6 | 3.99e6 | 3.97e6 | CG14492 | DRSC06463
3.63e6 | 4.29e6 | 3.97e6 | cold | DRSC00538
2.90e6 | 3.57e6 | 3.54e6 | TfIIFalpha | DRSC12608
3.52e6 | 4.01e6 | 3.99e6 | ppk17 | DRSC02252
3.50e6 | 3.91e6 | 4.05e6 | spz3 | DRSC02391
3.45e6 | 3.90e6 | 3.91e6 | spz3 | DRSC03008
3.51e6 | 3.88e6 | 4.00e6 | Lfg | DRSC06853
3.48e6 | 3.96e6 | 3.92e6 | CG15096 | DRSC06525
3.60e6 | 4.13e6 | 4.02e6 | CG15865 | DRSC19733
3.60e6 | 4.09e6 | 4.04e6 | Acp63F | DRSC08137
3.25e6 | 3.94e6 | 3.84e6 | CG17107 | DRSC02575
3.53e6 | 3.99e6 | 4.03e6 | CG17107 | DRSC22627
3.47e6 | 3.94e6 | 3.94e6 | svr | DRSC17293
3.60e6 | 4.03e6 | 4.13e6 | svr | DRSC18841
3.54e6 | 4.07e6 | 3.96e6 | Abca3 | DRSC20546
3.71e6 | 4.27e6 | 4.16e6 | CG14853 | DRSC14977
3.48e6 | 4.03e6 | 3.91e6 | CG14853 | DRSC21528
3.42e6 | 3.92e6 | 3.85e6 | NiPp1 | DRSC07307
2.76e6 | 3.02e6 | 3.18e6 | Smr | DRSC19495
2.77e6 | 3.58e6 | 3.58e6 | Smr | DRSC20288
3.38e6 | 3.88e6 | 3.81e6 | Smr | DRSC22986
3.86e6 | 4.23e6 | 4.47e6 | CG15160 | DRSC02461
3.46e6 | 3.91e6 | 3.90e6 | E(spl)mdelta-HLH | DRSC16698
3.50e6 | 3.89e6 | 4.06e6 | dpr19 | DRSC02237
3.66e6 | 4.15e6 | 4.16e6 | sim | DRSC17054
3.39e6 | 3.78e6 | 3.90e6 | CG14229 | DRSC19585
3.34e6 | 3.70e6 | 3.89e6 | CG14229 | DRSC23149
3.61e6 | 3.95e6 | 4.23e6 | CG1074 | DRSC12143
3.48e6 | 3.90e6 | 4.00e6 | VAChT | DRSC13311
3.52e6 | 4.07e6 | 3.91e6 | VAChT | DRSC16608
3.60e6 | 4.08e6 | 4.13e6 | mia | DRSC12137
3.37e6 | 3.78e6 | 3.80e6 | l(2)34Fd | DRSC01911
3.58e6 | 4.10e6 | 4.01e6 | ZnT35C | DRSC01959
3.47e6 | 3.91e6 | 3.96e6 | TrpA1 | DRSC10544
3.62e6 | 3.94e6 | 4.21e6 | nAChRalpha7 | DRSC20078
3.56e6 | 3.93e6 | 4.13e6 | nAChRalpha7 | DRSC20081
3.44e6 | 3.87e6 | 3.92e6 | Osi22 | DRSC16442
3.50e6 | 3.84e6 | 4.11e6 | Aatf | DRSC02131
3.57e6 | 4.13e6 | 4.00e6 | CG17982 | DRSC18143
3.54e6 | 4.20e6 | 3.95e6 | RhoGAP5A | DRSC18294
3.41e6 | 3.85e6 | 3.90e6 | CG34304 (retired record) | DRSC12810
3.44e6 | 3.94e6 | 3.88e6 | Cyt-b5-r | DRSC03308
3.50e6 | 4.00e6 | 3.96e6 | CG8135 + BBIP1 | DRSC12739
3.70e6 | 4.18e6 | 4.07e6 | CG8135 + BBIP1 | DRSC16384
3.34e6 | 3.75e6 | 3.75e6 | Arpc3B | DRSC20126
3.04e6 | 3.07e6 | 3.77e6 | SmD3 | DRSC07553
3.63e6 | 4.22e6 | 4.00e6 | Osi24 | DRSC12275
3.59e6 | 4.03e6 | 4.09e6 | scpr-A + scpr-C | DRSC15737
3.25e6 | 3.71e6 | 3.65e6 | CG6503 | DRSC16056
3.27e6 | 3.81e6 | 3.75e6 | fau | DRSC12816
3.53e6 | 3.88e6 | 4.14e6 | fau | DRSC12817
3.71e6 | 4.11e6 | 4.32e6 | fau | DRSC16943
3.55e6 | 4.05e6 | 4.00e6 | fau | DRSC16944
3.70e6 | 4.23e6 | 4.07e6 | fau | DRSC16945
3.66e6 | 4.12e6 | 4.11e6 | fau | DRSC22360
3.84e6 | 4.18e6 | 4.44e6 | CG15124 | DRSC06546
3.63e6 | 3.90e6 | 4.36e6 | lwr | DRSC00828
3.68e6 | 4.20e6 | 4.14e6 | Drep2 | DRSC07528
3.45e6 | 3.72e6 | 4.04e6 | CecB | DRSC16605
3.58e6 | 4.16e6 | 3.94e6 | GluRIID | DRSC16723
3.56e6 | 4.18e6 | 3.93e6 | CG6785 | DRSC02993
3.46e6 | 3.95e6 | 3.86e6 | CG4393 | DRSC15573
3.59e6 | 4.07e6 | 4.06e6 | apolpp | DRSC17216
3.53e6 | 4.10e6 | 3.90e6 | CG17571 | DRSC01768
3.61e6 | 4.09e6 | 4.11e6 | CG17571 | DRSC03755
3.48e6 | 3.98e6 | 3.89e6 | Sox14 | DRSC04656
3.46e6 | 3.87e6 | 3.97e6 | Act42A | DRSC04835
3.58e6 | 4.15e6 | 3.98e6 | CG42505 + CG42504 + CG31358 | DRSC15235
1.41e6 | 3.71e6 | 3.59e6 | CG42505 + CG42504 + CG31358 | DRSC15308
3.34e6 | 3.84e6 | 3.82e6 | CG42505 + CG42504 + CG31358 | DRSC15309
